Here are results for eight sequences from article PMC11925728.

Protein sequences, listed by entry. Tags and fused reporters are not part of them. Lines headed by an entry give the natural chain unless they say otherwise; changes in a name come on top.
UniProt P54821: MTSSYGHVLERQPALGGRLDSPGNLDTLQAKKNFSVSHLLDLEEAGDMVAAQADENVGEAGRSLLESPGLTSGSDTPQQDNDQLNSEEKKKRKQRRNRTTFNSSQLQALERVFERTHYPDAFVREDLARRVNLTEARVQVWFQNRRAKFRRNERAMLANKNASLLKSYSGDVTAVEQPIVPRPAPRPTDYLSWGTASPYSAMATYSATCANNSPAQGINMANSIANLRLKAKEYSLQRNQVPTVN

For at least one entry, the source does not settle the construct or the ends of the probe. For part of these data: A negative result means that nothing was seen under these conditions. For part of these data: At least one verdict rests on a figure or table, not on a statement of the authors. For part of these data: Weaker means in comparison with the reference protein, sequence or condition of that experiment. For part of these data: Where cells or extracts were used, other partners may take part.

In one series the test system is MBP-PA N. Kind of series: pull-down. As to conditions: recombinant protein; protein details: N-term MBP; label: 3' biotin on strand 1.
The subject of a further series is Ku70 + Ku80 + DNA-PKcs. Put plainly: pull-down. As to conditions: protein in an extract, label: 3' biotin on strand 1.
For a further series, the target named is MBP-PRRX1B (MBP-PB) (UniProt P54821). Kind of series: pull-down. As to conditions: recombinant protein, protein details: N-term MBP (pMAL-c2X).
In the next series the test system is MBP-PA deltaC. Kind of series: pull-down. As to conditions: recombinant protein; protein details: N-term MBP; label: 3' biotin on strand 1.
The subject of a further series is MBP-PRRX1A (MBP-PA). Kind of series: EMSA. As to conditions: 10 mM Mg2+; EMSA: 20 mM Tris-HCl pH 7.4, 10 mM MgCl2, 2.5% glycerol, 0.05% NP-40, 0.1 ug/ul BSA, RT, 200 nM DNA; recombinant protein; protein details: N-term MBP (pMAL-c2X). Background: In EMSA bound probe runs differently from free probe, usually more slowly.
The next series relates to His-PRRX1A (His-PA). Kind of series: MST. As to conditions: 10 mM Mg2+, Kd only in figure; MST: 20 mM Tris-HCl pH 7.4, 150 mM NaCl, 10 mM MgCl2, 2.5% glycerol, 0.05% Tween 20, RT; recombinant protein; protein details: His (pET-28a); label: 3' 6-FAM on strand 1.
The mark [1] stands for this setting: binds, weaker than PA, label: 3' biotin on strand 1.

With “AAGATGTTGTTTACACGAGGGCTCGAGCCCTCGTGTAAACAACATCTTTTTTTG (double strand) [blunt dsDNA 54 bp, biotinylated (Oligo#1-S/#1-A)]”, the binding result in the series on MBP-PA N was “no binding”; in the series on Ku70 + Ku80 + DNA-PKcs (EV control lysate, less than with PRRX1A) it was “binds more weakly”; with Ku70 + Ku80 + DNA-PKcs (lysate with FLAG-PRRX1A overexpressed, more enriched than EV) it was “binds”; with MBP-PRRX1B (MBP-PB) (setting [1]), “binds more weakly”; in the series on MBP-PA deltaC, “no binding”.
Consider “AAGATGTTGTTTACACGAGGGCTCGAGCCCTCGTGTAAACAACATCTTTTTTTG (double strand) [blunt dsDNA 54 bp, unlabeled (EMSA)]”, for which the binding result in the series with MBP-PRRX1A (MBP-PA) was “binds”.
Turning to “AAGATGTTGTTTACACGAGGGCTCGAGCCCTCGTGTAAACAACATCTTTTTTTG / CAAAAAAAGATGTTGTTTACACGAGGGCTC [5' overhang DNA (Oligo#1-S/#2-A)]”, the binding result with MBP-PRRX1B (MBP-PB) (setting [1]) is reported as “binds more weakly”.
In the case of “AAGATGTTGTTTACACGAGGGCTCGAGCCCTCGTGTAAACAACATCTTTTTTTG / CAAAAAAAGATGTTGTTTACACGAGGGCTC [MST 5' overhang (Oligo#3-S/#6-A)]”, in the series on His-PRRX1A (His-PA), the binding result is “binds”.
Same read-out and setting: to “AAGATGTTGTTTACACGAGGGCTCGAGCCCTCGTGTAAACAACATCTTTTTTTG / CAAAAAAAGATGTTGTTTACACGAGGGCTCGAGCCCTCGTGTAAACAA [MST 5' overhang (Oligo#3-S/#5-A)]” belongs “binds”; to “AAGATGTTGTTTACACGAGGGCTCGAGCCCTCGTGTAAACAACATCTTTTTTTG / CAAAAAAAGATGTTGTTTACACGAGGGCTCGAGCCCTCGTGTAAACAACAT [MST 5' overhang (Oligo#3-S/#4-A)]”, “binds”.
As for “CAAAAAAAGATGTTGTTTACACGAGGGCTCGAGCCCTCGTGTAAACAACATCTT / GAGCCCTCGTGTAAACAACATCTTTTTTTG [3' overhang DNA (Oligo#1-A/#2-S)]”, in the series with MBP-PRRX1B (MBP-PB) (binds, weaker than PA, label: 3' biotin on strand 2), the binding result is reported as “binds more weakly”.
On to “GAGCCCTCGTGTAAACAACATCTTTTTTTG [ssDNA Oligo#2-S]”, for which the binding result with MBP-PRRX1B (MBP-PB) (label: 3' biotin, single-stranded DNA) was “no binding”.
